Measurements: patent US20160075781A1 (IMMUNOGEN, published 2016)
No constants are given. Whether binding was seen depends on the method and setting. Some entries that bind do so weakly or less than the wild type.

Amino acid sequences for entries named in this document (tags omitted). A change or cut given only in a name is not applied to a line headed by its entry.
UniProt P15328: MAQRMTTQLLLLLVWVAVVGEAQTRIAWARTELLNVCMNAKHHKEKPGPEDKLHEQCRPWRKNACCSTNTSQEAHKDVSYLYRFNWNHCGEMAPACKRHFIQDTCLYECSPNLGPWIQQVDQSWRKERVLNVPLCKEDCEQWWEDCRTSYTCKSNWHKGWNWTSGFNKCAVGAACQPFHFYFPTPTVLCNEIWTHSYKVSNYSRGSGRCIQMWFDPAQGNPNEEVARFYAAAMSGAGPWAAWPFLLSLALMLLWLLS

Experiments:
human folate receptor 1 [1] = molecular target: T1, human folate receptor 1 (human, UniProt P15328 25-234); experiment: flow cytometry on 300-19 cells expressing human FOLR1
human folate receptor 1 [2] = molecular target: T1, human folate receptor 1; experiment: flow cytometry on FOLR1-expressing SKOV3 cells, antibodies and their SPDB-DM4, PEG4Mal-DM4, SMCC-DM1 or sulfo-SPDB-DM4 conjugates; Kd values only in FIG. 5
human folate receptor 1 [3] = molecular target: T1, human folate receptor 1; experiment: flow cytometry on 300-19 cells transfected with human FOLR1, detection with FITC anti-human secondary antibody; 300-19 parental cells as negative cell line

binding (human folate receptor 1 [1]): binds
binding (human folate receptor 1 [2]): binds
binding (human folate receptor 1 [3]): binds
B1: huMov19 (antibody, V domains shown)
VH: QVQLVQSGAEVVKPGASVKISCKASGYTFTGYFMNWVKQSPGQSLEWIGRIHPYDGDTFYNQKFQGKATLTVDKSSNTAHMELLSLTSEDFAVYYCTRYDGSRAMDYWGQGTTVTVSS
VL: DIVLTQSPLSLAVSLGQPAIISCKASQSVSFAGTSLMHWYHQKPGQQPRLLIYRASNLEAGVPDRFSGSGSKTDFTLNISPVEAEDAATYYCQQSREYPYTFGGGTKLEIKR
notes: Resurfaced humanized Mov19, full IgG1/kappa; also called humanized Mov19
